Among the data in publication PMC10081989 are binding values, retold here.

Sequences of proteins named here, by UniProt entry; tags and fusion partners are left off.
UniProt Q61188: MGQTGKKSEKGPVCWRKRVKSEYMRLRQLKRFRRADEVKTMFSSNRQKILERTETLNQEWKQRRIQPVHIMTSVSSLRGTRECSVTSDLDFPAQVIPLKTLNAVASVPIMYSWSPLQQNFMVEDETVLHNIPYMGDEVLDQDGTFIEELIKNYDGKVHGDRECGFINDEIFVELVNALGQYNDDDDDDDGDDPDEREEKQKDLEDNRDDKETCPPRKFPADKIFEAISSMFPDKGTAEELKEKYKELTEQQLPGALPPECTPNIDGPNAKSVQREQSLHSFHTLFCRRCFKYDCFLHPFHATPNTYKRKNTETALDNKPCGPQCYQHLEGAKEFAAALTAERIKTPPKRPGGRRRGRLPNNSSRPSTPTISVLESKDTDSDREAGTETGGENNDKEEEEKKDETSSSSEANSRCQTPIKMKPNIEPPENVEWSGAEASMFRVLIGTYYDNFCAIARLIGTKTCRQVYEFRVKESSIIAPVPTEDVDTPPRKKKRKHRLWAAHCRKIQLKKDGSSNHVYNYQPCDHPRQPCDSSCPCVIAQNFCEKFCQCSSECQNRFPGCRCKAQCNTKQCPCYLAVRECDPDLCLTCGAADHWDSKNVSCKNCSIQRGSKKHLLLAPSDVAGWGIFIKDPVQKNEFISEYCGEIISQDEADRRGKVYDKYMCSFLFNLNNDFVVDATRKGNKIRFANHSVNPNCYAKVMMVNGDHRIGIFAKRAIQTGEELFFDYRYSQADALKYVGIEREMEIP

Results are given in words; binding and its absence hold for the method and conditions named. Binding seen in cells or lysates may run through a third protein. Some binding calls cover weakened binding; strength is not graded here.

This experiment addresses Enhancer of zeste homolog 2 (mouse, RAW264.7) (mouse (endogenous in RAW264.7)) (UniProt Q61188). Briefly: co-IP; lysates of RAW264.7 cells cultured with 10% (vol/vol) medium of HK2 cells treated with 0.5 mM H2O2, immunoprecipitation with IgG or EZH2 antibody, then EZH2 and STAT6 immunoblotting.

B1: Signal transducers and activators of transcription 6 (protein, UniProt P52633 1-837)
chain: MSLWGLISKMSPEKLQRLYVDFPQRLRHLLADWLESQPWEFLVGSDAFCYNMASALLSATVQRLQATAGEQGKGNSILPHISTLESIYQRDPLKLVATIRQILQGEKKAVIEEFRHLPGPFHRKQEELKFTTALGRLQHRVRETRLLRESLQQGAKTGQVSLQNLIDPPVNGPGPSEDLATMLQGTVGDLEATQALVLKRIQIWKRQQQLAGNGTPFEESLAGLQERCESLVEIYSQLQQEIGAASGELEPKTRASLISRLDEVLRTLVTSSFLVEKQPPQVLKTQTKFQAGVRFLLGLQFLGTSAKPPMVRADMVTEKQARELSLAQGPGTGVESTGEIMNNTVPLENSIPSNCCSALFKNLLLKKIKRCERKGTESVTEEKCAVLFSTSFTLGPNKLLIQLQALSLPLVVIVHGNQDNNAKATILWDNAFSEMDRVPFVVAERVPWEKMCETLNLKFMAEVGTSRGLLPEHFLFLAQKIFNDNSLSVEAFQHRCVSWSQFNKEILLGRGFTFWQWFDGVLDLTKRCLRSYWSDRLIIGFISKQYVTSLLLNEPDGTFLLRFSDSEIGGITIAHVIRGQDGSSQIENIQPFSAKDLSIRSLGDRIRDLAQLKNLYPKKPKDEAFRSHYKPEQMGKDGRGYVSTTIKMTVERDQPLPTPEPQMPAMVPPYDLGMAPDASMQLSSDMGYPPQSIHSFQSLEESMSVLPSFQEPHLQMPPNMSQITMPFDQPHPQGLLQCQSQEHAVSSPEPMLCSDVTMVEDSCLTQPVGGFPQGTWVSEDMYPPLMPPTEQDLTKLLLENQGEAGGSLGSQPLLQPSPYGQSGISLSHLDLRTNPSW
In the case of B1, the binding result was “binds”.
